Consider 42 sequences from article PMC7819943, “Rice protein-binding microarrays: a tool to detect cis-acting elements near promoter regions in rice”.

This is one part of the list.

For this assay, the target named is T1, OsSMF1 (Oryza sativa, UniProt Q6ZLB0 1-436).
T1 sequence: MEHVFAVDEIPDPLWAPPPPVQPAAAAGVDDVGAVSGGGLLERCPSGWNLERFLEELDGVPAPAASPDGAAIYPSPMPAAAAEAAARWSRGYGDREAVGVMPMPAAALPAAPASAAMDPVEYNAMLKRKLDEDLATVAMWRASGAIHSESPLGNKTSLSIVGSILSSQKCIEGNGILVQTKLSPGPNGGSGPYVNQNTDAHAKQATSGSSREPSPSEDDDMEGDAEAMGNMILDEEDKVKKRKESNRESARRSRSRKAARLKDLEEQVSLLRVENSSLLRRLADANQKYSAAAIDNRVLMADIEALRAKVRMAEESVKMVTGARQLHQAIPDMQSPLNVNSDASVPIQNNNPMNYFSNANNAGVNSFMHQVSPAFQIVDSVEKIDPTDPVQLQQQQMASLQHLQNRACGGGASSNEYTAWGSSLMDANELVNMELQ
The experiment in a line: protein-binding microarray (RPBM); PBS, 2% BSA, 51.3 ng/ul salmon testes DNA, 50 uM zinc acetate, 200 nM TF, 25 C, 1 h; high values mean tight binding. The settings on record: protein: recombinant; tags: N-terminal polyhistidine and DsRed monomer fusion (pET32a); chain copies: 2; label: CyDye5-dUTP incorporated in the synthesized complementary strand; 3' TTTTT single-stranded linker to array surface; dsDNA, one strand shown. A digest of the protocol: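 Transcription factors were each fused at the N-terminus to a polyhistidine tag plus DsRed and expressed in E. coli BL21-CodonPlus before Ni–NTA purification. Binding to a double-stranded custom Agilent array was carried out with 200 nM protein at 25 °C for 1 h in PBS, 2% BSA, salmon testes DNA and 50 µM zinc acetate. The binding signal is per-feature fluorescence intensity, in arbitrary units, on an Axon 4000B scanner.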
For the sequence “CAATTGGGATCGCGACTCACGTTCTGACTAAGGTACTGGCCGGAGTCACCTAGTGCAG”, the binding signal is 5320 fluorescence intensity (a.u.).

As for “TAGGGATGTGACCGGTTGACGCGTTGGATGAAGAGGAAGTCGGAGTCACCTAGTGCAG”, the binding signal was 4760 fluorescence intensity (a.u.).

Turning to “GTACTCCGTACTAGTAGTGGCACTCAATGTTCGGTATCTGCGGAGTCACCTAGTGCAG”, the binding signal was 50200 fluorescence intensity (a.u.).

In the case of “GGAGGTTAAATGCTGTGGCAAAATAGTTTGGAGGAGCGAACGGAGTCACCTAGTGCAG”, the binding signal is 3300 fluorescence intensity (a.u.).

Regarding “ACGAGCCCACGAGGTTGATGACGACGAAGCCGAAGAGTTGCGGAGTCACCTAGTGCAG”, the binding signal was 4660 fluorescence intensity (a.u.).

In the case of “GGAAGTGCTCTCCCATTTTCTATCATCAGAAAGGTATAGGCGGAGTCACCTAGTGCAG”, the binding signal was 3750 fluorescence intensity (a.u.).

As to “AGCGCCGGCCATAGCTCGCGGGGTGTTGCAATCGCTGCTACGGAGTCACCTAGTGCAG”, the binding signal is 14500 fluorescence intensity (a.u.).

Turning to “CAACGAAATATATGGTGGGGACACGTGGCAGCACAAGGGCCGGAGTCACCTAGTGCAG”, the binding signal is 29100 fluorescence intensity (a.u.).

Turning to “TACTAATGTTATTACACGTATTGCCATTTGATTTATTGTTCGGAGTCACCTAGTGCAG”, the binding signal was 6090 fluorescence intensity (a.u.).

For “CTCCACACACCCCGCCACATCCGCCTCTGCGCGACTGCGCCGGAGTCACCTAGTGCAG”, the binding signal is 3740 fluorescence intensity (a.u.).

For “ACCGCCCGGCAGAAAAGCCTCTTCAGCCTCCGCCACGCAACGGAGTCACCTAGTGCAG”, the binding signal was 3370 fluorescence intensity (a.u.).

Take “ACAGCCGGGCGGCTGCCACGCTAGCTGCCTCTCCCCTTCCCGGAGTCACCTAGTGCAG”: the binding signal is 4840 fluorescence intensity (a.u.).

For “GAACCCTAACTGCGCCATCACATCGATCTACCTCCCCTTACGGAGTCACCTAGTGCAG”, the binding signal is 3650 fluorescence intensity (a.u.).

Regarding “TAGCTAGGCATAGTGACAACACACTCACTCCCCTCATTTCCGGAGTCACCTAGTGCAG”, the binding signal was 3640 fluorescence intensity (a.u.).

Consider “GGGAGGAAGAATGGTCGGCGTGGGTCCTCGCTTGCACGGACGGAGTCACCTAGTGCAG”, for which the binding signal is 3280 fluorescence intensity (a.u.).

Consider “GCGCCAGTCAACTAAAATCATGCCATGGCCACACGTAGTCCGGAGTCACCTAGTGCAG”, for which the binding signal was 3350 fluorescence intensity (a.u.).

In the case of “CACAGGCAGGCCTGCAACATGCGTCACGCAGACTTTGATGCGGAGTCACCTAGTGCAG”, the binding signal is 4140 fluorescence intensity (a.u.).

In the case of “CTGCTTGTACCAGCATGCCGCTATTGTCGTGCGTGTGACCCGGAGTCACCTAGTGCAG”, the binding signal is 3680 fluorescence intensity (a.u.).

As to “TGAAACGGAGGGAGTATTATTAATATCTTAAGATGGACGACGGAGTCACCTAGTGCAG”, the binding signal is 6690 fluorescence intensity (a.u.).

As for “TGACCCAGCAAGCAAGAAACTCCTCCAGCGTCTAGTCACCCGGAGTCACCTAGTGCAG”, the binding signal is 3830 fluorescence intensity (a.u.).

In the case of “AACCGCTCCTCCTCCTCTTCTCCGCGTCCCCACCACGTGCCGGAGTCACCTAGTGCAG”, the binding signal is 3890 fluorescence intensity (a.u.).

Take “GTAGGGAACACACGTATAACTTTCTGACAGTCACACACTGCGGAGTCACCTAGTGCAG”: the binding signal is 3300 fluorescence intensity (a.u.).

Consider “TGAGTACTCCTGGTCTACTCCATTGCGTGTGGCTTGTCTGCGGAGTCACCTAGTGCAG”, for which the binding signal was 3940 fluorescence intensity (a.u.).

As for “TGGGCCGCCCCTGGAGGCAAGGTAGCCGGATCCGTCATGTCGGAGTCACCTAGTGCAG”, the binding signal is 3510 fluorescence intensity (a.u.).

On to “GGACCTAGAGTACCGAGTGAGGATTATCATATAATAGATTCGGAGTCACCTAGTGCAG”, for which the binding signal was 19300 fluorescence intensity (a.u.).

“TCACCTTTGACGGGTCATACGGGATGCCGTCATCGGTGAGCGGAGTCACCTAGTGCAG”: the binding signal was 3180 fluorescence intensity (a.u.).

“TCTCTTCATAATGATATTGCCATGTCATCAAATTTGTTTGCGGAGTCACCTAGTGCAG”: the binding signal is 13200 fluorescence intensity (a.u.).

As for “AATTTCTTCAAACAGATAAGGATATACGTGGCGATAGTTTCGGAGTCACCTAGTGCAG”, the binding signal is 5050 fluorescence intensity (a.u.).

Consider “CCCGCCAGACCCGATGGAGACTACTTCCTCTCCATTTGATCGGAGTCACCTAGTGCAG”, for which the binding signal was 5180 fluorescence intensity (a.u.).

Take “AGTGCTTTATTTTGCTGATTCATTGTTAAAATTGCCTCTACGGAGTCACCTAGTGCAG”: the binding signal was 5500 fluorescence intensity (a.u.).

Regarding “GAGATTAGAGAGAGAGGGAAGGGAACACCGACCCGCATCGCGGAGTCACCTAGTGCAG”, the binding signal was 4560 fluorescence intensity (a.u.).

“GGAGTTGCCCTTAATGGCGGTGACGTCGGATACAGTGCTTCGGAGTCACCTAGTGCAG”: the binding signal is 9140 fluorescence intensity (a.u.).

Take “CCAATTTGACGTGAAATGTTTAGATGATCTCTTGCCAGTACGGAGTCACCTAGTGCAG”: the binding signal is 3150 fluorescence intensity (a.u.).

For “CTGTCGCTGTGCAGACGTTGCTAACACCGGCGGGAATCTTCGGAGTCACCTAGTGCAG”, the binding signal was 3210 fluorescence intensity (a.u.).

“TGTTTCATCGACCGGTCTGGCCACGTGTCGTTGGACGATCCGGAGTCACCTAGTGCAG”: the binding signal was 12800 fluorescence intensity (a.u.).

As for “TAGTTTCGCTAGTTGACAGATCATCACAATGCAAATGAAGCGGAGTCACCTAGTGCAG”, the binding signal was 3900 fluorescence intensity (a.u.).

With “AAGGAGAGATGAGAAAGACAAGCCACGTTAGCGAAAACCGCGGAGTCACCTAGTGCAG”, the binding signal was 5060 fluorescence intensity (a.u.).

Consider “CAATTCTAGTGACGATCCGAGCGTCATATCTGCCTAGTTACGGAGTCACCTAGTGCAG”, for which the binding signal is 4740 fluorescence intensity (a.u.).

With “GCAGCCTGGTCAGCCAGCCAGACAGCCCGCACCCACGCGGCGGAGTCACCTAGTGCAG”, the binding signal is 3750 fluorescence intensity (a.u.).

“ACAAACCGAGGAGGAGGAGGAGGGCCCACCAGCCACCACGCGGAGTCACCTAGTGCAG”: the binding signal is 3310 fluorescence intensity (a.u.).

Turning to “CAAAATATCTCAGCACGTGGCGATGGCTGGAGGGGAGGCGCGGAGTCACCTAGTGCAG”, the binding signal is 3870 fluorescence intensity (a.u.).

For the sequence “GAATCTAGATGCTGTTCCATCTCCAAATGTTCAAACCCTCCGGAGTCACCTAGTGCAG”, the binding signal was 4870 fluorescence intensity (a.u.).
